Experimental data as given in article PMC5889877, “Ex Vivo Cardiotoxicity of Antineoplastic Casiopeinas Is Mediated through Energetic Dysfunction and Triggered Mitochondrial-Dependent Apoptosis” (Oxidative Medicine and Cellular Longevity, 2018).

Tests used:
[1] = tested on: isolated rat hearts; experiment: Langendorff-perfused isolated rat heart: mechanical performance (RPP, HR, ±dP/dt, cardiac efficiency)
Experimental: Male Wistar rats (250–300 g) were injected with heparin (10^3 U·kg^−1, i.p.) 20 minutes prior to anesthesia with pentobarbital (100 mg·kg^−1, i.p.). When bilateral corneal reflex was absent, the heart was excised through an abdominal approach. Then, the ascending aorta was visualized and cut and the heart was placed in a cardioplegic solution. To avoid ischemia, the time between cutting the diaphragm to placing the heart in the solution was less than 60 seconds. The hearts were mounted in accordance with the Langendorff model and perfused at a constant flow (12 ml·min^−1) with a Krebs-Henseleit buffer as previously described. A latex balloon connected to a pressure transducer filled with saline solution was inserted into the left ventricle after establishing autonomous contraction. The pulmonary artery was cannulated and connected to a closed chamber using a Clark-type oxygen electrode (Yellow Springs Instruments, Yellow Springs, Ohio) to measure myocardial oxygen consumption (MVO2) in the coronary effluent. The rate of MVO2 was calculated as the difference between the concentration in the K-H buffer before (100%) and after perfusion. Data Trax software (WPI, Sarasota, Florida) was used for continuous recording of the heart rate (HR), left ventricular pressure (LVP), MVO2, and maximum positive and negative derivative of left ventricular pressure (±dP/dt). The baseline was established during 10–15 minutes of K-H perfusion. Each concentration of Cas or Doxo remained in the heart for 30 min. Hearts in the control group were perfused with K-H buffer during the whole experimental time. Rate pressure product (RPP = HR × LVP) and cardiac efficiency ([…]) were calculated as previously reported.

[2] = tested on: adult rat ventricular myocytes; experiment: Cardiomyocyte viability, Alamar Blue; format: cell-based; conditions: LD50 comparison
Source text: Ventricular cardiomyocytes were obtained from male Wistar rats (250–300 g) by digestion with collagenase type II as previously described. Cells were washed in Tyrode solution (mM): 130 NaCl, 5.4 KCl, 0.4 NaH2PO4, 0.5 MgCl2, 25 HEPES, and 5 glucose with pH 7.4. After isolation, cells were cultivated at a density of 3.2 × 10^3 viable cells/well in 96-well plates pretreated with laminin in M-199 medium supplemented in mM with 5 taurine, 5 creatine, 2 L-carnitine, 2.5 sodium pyruvate, and penicillin-streptomycin at 100 U·ml^−1 and 100 μg·ml^−1, respectively, at 37°C, with 5% CO2 and 95% air. After incubation for three hours, varying concentrations of Cas were tested in triplicate, exposing the myocytes during 24 hours to each treatment. At the end of the incubation period, the cytotoxicity of Cas was measured using the Alamar Blue viability test (Life Technologies, Carlsbad, CA, USA). Release of cytoplasmic lactate dehydrogenase (LDH) was determined using CytoTox-ONE homogeneous membrane integrity kit (Promega Madison, WI, USA). The activity of caspases 3/7 and caspase 9 was measured in cell lysates using caspase-Glo 3/7 and caspase-Glo 9 test luminescent assay (Promega, Madison, WI, USA), respectively. The cardiomyoblast cell line H9c2 (ATCC CRL-1446) was maintained using standard procedures in DMEM supplemented with 10% fetal bovine serum prior to the oxidative stress experiments.

Structure (SMILES)	more potent inhibitor of cardiac contractility compared to III-ia ([1]; IC50 comparison) [fold]	higher toxicity compared to III-ia [2] [fold]	more potent effect on RPP than Doxo ([1]; IC50 comparison) [fold]	inhibitory effect on RPP slower than that of III-Ea ([1]; 5 μM, time-dependent) [fold]
Cc1ccnc2c1ccc1c(C)ccnc12.NCC(=O)[O-].O.O.O=[N+]([O-])[O-].[Cu+2] [Cas II-gly, Aqua(4,7-dimethyl-1,10-phenanthroline)(glycinate)copper(II)nitrate]	2	3	–	–
CC(=O)C=C(C)[O-].Cc1ccnc2c1ccc1c(C)ccnc12.O.O.O=[N+]([O-])[O-].[Cu+2] [Cas III-Ea, Aqua(4,7-dimethyl-1,10-phenanthroline)(acetylacetonate)copper(II)nitrate]	7	3	3.8	–
CC(=O)C=C(C)[O-].Cc1ccnc(-c2cc(C)ccn2)c1.O.O.O=[N+]([O-])[O-].[Cu+2] [Cas III-ia, Aqua(4,4-dimethyl-2,2′bipyridine)(acetylacetonate)copper(II)nitrate]	–	–	–	2.3
